Source: article PMC10926643
No constants are given. Whether binding was seen depends on the method and setting. For some assays here: Binding seen in cells or lysates may run through a third protein. Some binding calls cover weakened binding; strength is not graded here. Where a sequence is shown, tags or fusion partners need not be part of it.

The chains behind the UniProt entries cited, without tags or fusion partners.
UniProt P09382: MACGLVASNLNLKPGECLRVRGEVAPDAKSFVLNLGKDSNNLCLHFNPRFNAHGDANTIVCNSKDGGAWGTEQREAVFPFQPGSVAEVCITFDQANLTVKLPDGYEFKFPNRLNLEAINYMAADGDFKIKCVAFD
UniProt P17931: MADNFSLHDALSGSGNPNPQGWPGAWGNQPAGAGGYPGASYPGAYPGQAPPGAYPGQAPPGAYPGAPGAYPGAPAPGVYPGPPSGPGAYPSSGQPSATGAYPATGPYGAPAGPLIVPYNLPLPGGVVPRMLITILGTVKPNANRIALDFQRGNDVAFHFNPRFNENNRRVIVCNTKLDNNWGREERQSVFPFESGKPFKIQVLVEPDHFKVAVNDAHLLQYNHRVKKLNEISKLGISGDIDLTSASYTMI
UniProt P47929: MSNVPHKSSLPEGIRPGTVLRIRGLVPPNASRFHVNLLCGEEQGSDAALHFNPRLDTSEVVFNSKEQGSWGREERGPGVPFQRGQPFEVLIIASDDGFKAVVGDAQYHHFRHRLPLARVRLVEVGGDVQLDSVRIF
UniProt O00214: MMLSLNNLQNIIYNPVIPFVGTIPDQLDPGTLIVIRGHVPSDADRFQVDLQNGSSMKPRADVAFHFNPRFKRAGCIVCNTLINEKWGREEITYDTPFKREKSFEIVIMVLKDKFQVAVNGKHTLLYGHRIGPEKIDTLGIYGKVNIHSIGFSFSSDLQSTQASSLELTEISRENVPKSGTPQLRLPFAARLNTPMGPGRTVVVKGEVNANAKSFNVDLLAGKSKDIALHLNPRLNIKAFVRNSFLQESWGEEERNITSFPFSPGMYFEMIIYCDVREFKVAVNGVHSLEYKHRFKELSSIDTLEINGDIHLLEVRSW

What follows are substances tested against T1, recombinant FGF12 fused with the His-tag (UniProt P61328) (assay: SPR; Biacore 3000, 25°C; His-tagged FGF12 immobilised by amine coupling on a CM4 (low density) chip at about 600 RU; galectins injected at 0.25 to 4 μM, 30 μL/min, in HBS with 0.05% Tween 20, 0.05% BSA, 0.02% NaN3, pH 7.4; KD from fitted saturation binding curves; both purified).
T1 sequence: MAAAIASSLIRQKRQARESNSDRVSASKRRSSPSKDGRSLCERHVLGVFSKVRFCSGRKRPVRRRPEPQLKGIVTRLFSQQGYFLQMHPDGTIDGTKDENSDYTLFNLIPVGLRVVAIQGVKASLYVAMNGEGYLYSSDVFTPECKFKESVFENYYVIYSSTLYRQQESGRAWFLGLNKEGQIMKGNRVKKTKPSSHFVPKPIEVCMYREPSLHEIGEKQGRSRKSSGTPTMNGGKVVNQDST

binding, binds:
recombinant galectin-1 (from UniProt P09382 1-135)
recombinant galectin-3 (from UniProt P17931 1-250)
recombinant galectin-7 (from UniProt P47929 1-136)
recombinant galectin-8 (from UniProt O00214 1-317)

The substances below were run against T2, FGF12-GFP.myc (UniProt P61328) (assay: proximity ligation; in situ PLA (Duolink) in fixed, permeabilised U2OS-FGF12-GFP.myc cells; mouse anti-myc antibody detecting FGF12-GFP.myc and rabbit antibodies against galectin-1, -3, -7 or -8; fluorescence microscopy).
T2 sequence: T1 sequence

binding, binds:
galectin-1 (endogenous, U2OS-FGF12-GFP.myc cells) (from UniProt P09382 1-135)
galectin-3 (endogenous, U2OS-FGF12-GFP.myc cells) (from UniProt P17931 1-250)
galectin-7 (endogenous, U2OS-FGF12-GFP.myc cells) (from UniProt P47929 1-136)
galectin-8 (endogenous, U2OS-FGF12-GFP.myc cells) (from UniProt O00214 1-317)
